Results are given in words; binding and its absence hold for the method and conditions named. Some binding calls cover weakened binding; strength is not graded here.

The source of these data is US20220162330A1 (CELGENE, published 2022).

This assay concerns the target cynomolgus CD47 on cynomolgus RBCs (cynomolgus). Nature of the assay: binding to isolated cynomolgus RBCs, reference at 2 µg/ml.

B1: TPP-23 (408_437 with IgG1) (antibody, V domains shown)
VH: QMQLVQSGAEVKKPGSSVKVSCKASGFNIKDYYLHWVRQAPGKGLEWMGWIDPDQGDTEYAQKFQGRVTITRDRSTSTAYMELRSLRAEDTAVYYCNAAYGSSSYPMDYWGQGTLVTVSS
VL: NIQMTQSPSSLSASVGDRVTITCRASQDIHRYLSWFQQKPGKVPKHLIYRANRLVSGVPSRFSGSGSGTEFTLTISSLQPEDFATYYCLQYDEFPYTFGGGTKVEIK
notes: Monospecific IgG1 with the 408_437 Fab; also called parental CD47 mAb
Take B1: the binding entry was “binds”.
